# Data reported in the supplement of paper PMC8728848.
# This is one part of the list.
# B1: BabA (Helicobacter pylori), O52269_HELPY (protein)
# chain: AEDDGFYMSAGYQIGEAAQMVKNTKGIQELSDNYENLSNLLTRYSTLNTLIKLSADPSAVNAARENLGASAKNLIGDTKNSPAYQAVLLAINAAVGFWNVVGYVTQCGGNANGQKSTSSTTIFNNEPGYRSTSITCSLNGHMPGYYGPMSIENFKKLNEAYQILQTALKNGLPALKENNGTVNVTYSYTCSGEGNDNCSLQTTGVTNQNNGTKTETQTIDGKSVTTTISSKVVDSQ
# Assays:
# Test in all cases: glycan array binding signal (z-score within array); higher = stronger binding
# Conditions in all cases: glycan notation: IUPAC condensed, linker removed
# Fuc(a1-2)Gal = biological target: Fuc(a1-2)Gal
# Outline: (§1)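 The binding signal is a Z-score computed within each array and averaged over linkers. Arrays of the same protein sequence at different concentrations or buffers were also averaged together. Data originate from 3228 arrays in the Consortium for Functional Glycomics database, kept only where the protein sequence was available.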
# Fuc(a1-2)Gal(b1-3)GalNAc = biological target: Fuc(a1-2)Gal(b1-3)GalNAc
# Outline: as §1
# [1] = biological target: Fuc(a1-2)Gal(b1-3)GalNAc(a1-3)[Fuc(a1-2)]Gal(b1-4)Glc
# Outline: as §1
# [2] = biological target: Fuc(a1-2)Gal(b1-3)GalNAc(a1-3)[Fuc(a1-2)]Gal(b1-4)GlcNAc
# Outline: as §1
# [3] = biological target: Fuc(a1-2)Gal(b1-3)GalNAc(b1-3)Gal
# Outline: as §1
# [4] = biological target: Fuc(a1-2)Gal(b1-3)GalNAc(b1-3)Gal(a1-4)Gal(b1-4)Glc
# Outline: as §1
# [5] = biological target: Fuc(a1-2)Gal(b1-3)GalNAc(b1-4)[Neu5Ac(a2-3)]Gal(b1-4)Glc
# Outline: as §1
# Fuc(a1-2)Gal(b1-3)GlcNAc = biological target: Fuc(a1-2)Gal(b1-3)GlcNAc
# Outline: as §1
# [6] = biological target: Fuc(a1-2)Gal(b1-3)GlcNAc(b1-2)Man(a1-3)[Fuc(a1-2)Gal(b1-3)GlcNAc(b1-2)Man(a1-6)]Man(b1-4)GlcNAc(b1-4)GlcNAc
# Outline: as §1
# [7] = biological target: Fuc(a1-2)Gal(b1-3)GlcNAc(b1-2)Man(a1-3)[Fuc(a1-2)Gal(b1-3)GlcNAc(b1-2)Man(a1-6)]Man(b1-4)GlcNAc(b1-4)[Fuc(a1-6)]GlcNAc
# Outline: as §1
# [8] = biological target: Fuc(a1-2)Gal(b1-3)GlcNAc(b1-3)Gal(b1-4)Glc
# Outline: as §1
# [9] = biological target: Fuc(a1-2)Gal(b1-3)GlcNAc(b1-3)GalNAc
# Outline: as §1
# [10] = biological target: Fuc(a1-2)Gal(b1-3)GlcNAc(b1-3)[Fuc(a1-2)Gal(b1-3)GlcNAc(b1-6)]GalNAc
# Outline: as §1
# [11] = biological target: Fuc(a1-2)Gal(b1-3)GlcNAc(b1-3)[Gal(b1-4)GlcNAc(b1-6)]Gal(b1-4)Glc
# Outline: as §1
# [12] = biological target: Fuc(a1-2)Gal(b1-3)GlcNAc(b1-3)[Gal(b1-4)[Fuc(a1-3)]GlcNAc(b1-6)]Gal(b1-4)Glc
# Outline: as §1
# [13] = biological target: Fuc(a1-2)Gal(b1-3)GlcNAc(b1-3)[Neu5Ac(a2-6)Gal(b1-4)GlcNAc(b1-6)]Gal(b1-4)Glc
# Outline: as §1
# [14] = biological target: Fuc(a1-2)Gal(b1-3)GlcNAc6S
# Outline: as §1
# [15] = biological target: Fuc(a1-2)Gal(b1-3)[Fuc(a1-4)]GlcNAc
# Outline: as §1
# [16] = biological target: Fuc(a1-2)Gal(b1-3)[Fuc(a1-4)]GlcNAc(b1-2)Man(a1-3)[Fuc(a1-2)Gal(b1-3)[Fuc(a1-4)]GlcNAc(b1-2)Man(a1-3)]Man(b1-4)GlcNAc(b1-4)GlcNAc
# Outline: as §1
# [17] = biological target: Fuc(a1-2)Gal(b1-3)[Fuc(a1-4)]GlcNAc(b1-2)Man(a1-3)[Fuc(a1-2)Gal(b1-3)[Fuc(a1-4)]GlcNAc(b1-2)Man(a1-6)]Man(b1-4)GlcNAc(b1-4)GlcNAc
# Outline: as §1
# [18] = biological target: Fuc(a1-2)Gal(b1-3)[Fuc(a1-4)]GlcNAc(b1-2)Man(a1-3)[Fuc(a1-2)Gal(b1-3)[Fuc(a1-4)]GlcNAc(b1-2)Man(a1-6)]Man(b1-4)GlcNAc(b1-4)[Fuc(a1-6)]GlcNAc(b1-4)[Fuc(a1-6)]GlcNAc
# Outline: as §1
# [19] = biological target: Fuc(a1-2)Gal(b1-3)[Fuc(a1-4)]GlcNAc(b1-3)[Fuc(a1-3)[Gal(b1-4)]GlcNAc(b1-6)]Gal(b1-4)Glc
# Outline: as §1
# [20] = biological target: Fuc(a1-2)Gal(b1-3)[Fuc(a1-4)]GlcNAc(b1-3)[Gal(b1-4)GlcNAc(b1-6)]Gal(b1-4)Glc
# Outline: as §1
# [21] = biological target: Fuc(a1-2)Gal(b1-4)Fuc(a1-3)]GlcNAc(b1-2)Man(a1-3)[Fuc(a1-2)Gal(b1-4)[Fuc(a1-3)]GlcNAc(b1-2)Man(a1-6)]Man(b1-4)GlcNAc(b1-4)GlcNAc
# Outline: as §1
# Fuc(a1-2)Gal(b1-4)Glc = biological target: Fuc(a1-2)Gal(b1-4)Glc
# Outline: as §1
# Fuc(a1-2)Gal(b1-4)Glc6S = biological target: Fuc(a1-2)Gal(b1-4)Glc6S
# Outline: as §1
# Fuc(a1-2)Gal(b1-4)GlcNAc = biological target: Fuc(a1-2)Gal(b1-4)GlcNAc
# Outline: as §1
# [22] = biological target: Fuc(a1-2)Gal(b1-4)GlcNAc(b1-2)Man
# Outline: as §1
# [23] = biological target: Fuc(a1-2)Gal(b1-4)GlcNAc(b1-2)Man(a1-3)[Fuc(a1-2)Gal(b1-4)GlcNAc(b1-2)Man(a1-6)]Man(b1-4)GlcNAc(b1-4)GlcNAc
# Outline: as §1
# [24] = biological target: Fuc(a1-2)Gal(b1-4)GlcNAc(b1-2)Man(a1-3)[Fuc(a1-2)Gal(b1-4)GlcNAc(b1-2)Man(a1-6)]Man(b1-4)GlcNAc(b1-4)[Fuc(a1-6)]GlcNAc
# Outline: as §1
binder,measurement,setting,value
B1,glycan array binding signal (z-score),Fuc(a1-2)Gal,-0.534
same,glycan array binding signal (z-score),Fuc(a1-2)Gal(b1-3)GalNAc,0.072
same,glycan array binding signal (z-score),[1],-0.546
same,glycan array binding signal (z-score),[2],-0.655
same,glycan array binding signal (z-score),[3],-0.369
same,glycan array binding signal (z-score),[4],0.152
same,glycan array binding signal (z-score),[5],0.223
same,glycan array binding signal (z-score),Fuc(a1-2)Gal(b1-3)GlcNAc,-0.531
same,glycan array binding signal (z-score),[6],1.1
same,glycan array binding signal (z-score),[7],-0.237
same,glycan array binding signal (z-score),[8],-0.27
same,glycan array binding signal (z-score),[9],0.508
same,glycan array binding signal (z-score),[10],0.335
same,glycan array binding signal (z-score),[11],-0.409
same,glycan array binding signal (z-score),[12],-1.21
same,glycan array binding signal (z-score),[13],-0.173
same,glycan array binding signal (z-score),[14],-0.328
same,glycan array binding signal (z-score),[15],-0.29
same,glycan array binding signal (z-score),[16],1.34
same,glycan array binding signal (z-score),[17],-0.775
same,glycan array binding signal (z-score),[18],0.081
same,glycan array binding signal (z-score),[19],-0.182
same,glycan array binding signal (z-score),[20],-0.21
same,glycan array binding signal (z-score),[21],3.3
same,glycan array binding signal (z-score),Fuc(a1-2)Gal(b1-4)Glc,-0.228
same,glycan array binding signal (z-score),Fuc(a1-2)Gal(b1-4)Glc6S,0.321
same,glycan array binding signal (z-score),Fuc(a1-2)Gal(b1-4)GlcNAc,0.041
same,glycan array binding signal (z-score),[22],0.472
same,glycan array binding signal (z-score),[23],-0.299
same,glycan array binding signal (z-score),[24],0.69

# Laid out differently: results already given.
binder | measurement | setting | value
B1 | glycan array binding signal (z-score) | Fuc(a1-2)Gal(b1-3)GalNAc | 0.072
same | glycan array binding signal (z-score) | [1] | -0.546
